Test results reported in the supplement of paper PMC10849652.
This is one part of the list.

Sequences of proteins named here, by UniProt entry; tags and fusion partners are left off. A change or cut given only in a name is not applied to a line headed by its entry.
UniProt Q6P1Q9: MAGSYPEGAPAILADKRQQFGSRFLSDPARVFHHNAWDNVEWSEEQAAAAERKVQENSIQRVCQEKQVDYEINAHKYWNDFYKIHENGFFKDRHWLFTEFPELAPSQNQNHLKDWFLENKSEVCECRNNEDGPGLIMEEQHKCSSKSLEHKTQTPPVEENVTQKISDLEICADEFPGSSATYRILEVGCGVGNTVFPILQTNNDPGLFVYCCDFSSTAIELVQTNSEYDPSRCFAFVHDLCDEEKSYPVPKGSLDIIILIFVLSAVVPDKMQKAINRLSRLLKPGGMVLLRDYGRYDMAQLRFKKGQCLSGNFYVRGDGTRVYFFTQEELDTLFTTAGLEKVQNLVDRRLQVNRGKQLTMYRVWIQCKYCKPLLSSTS
UniProt Q9H7H0: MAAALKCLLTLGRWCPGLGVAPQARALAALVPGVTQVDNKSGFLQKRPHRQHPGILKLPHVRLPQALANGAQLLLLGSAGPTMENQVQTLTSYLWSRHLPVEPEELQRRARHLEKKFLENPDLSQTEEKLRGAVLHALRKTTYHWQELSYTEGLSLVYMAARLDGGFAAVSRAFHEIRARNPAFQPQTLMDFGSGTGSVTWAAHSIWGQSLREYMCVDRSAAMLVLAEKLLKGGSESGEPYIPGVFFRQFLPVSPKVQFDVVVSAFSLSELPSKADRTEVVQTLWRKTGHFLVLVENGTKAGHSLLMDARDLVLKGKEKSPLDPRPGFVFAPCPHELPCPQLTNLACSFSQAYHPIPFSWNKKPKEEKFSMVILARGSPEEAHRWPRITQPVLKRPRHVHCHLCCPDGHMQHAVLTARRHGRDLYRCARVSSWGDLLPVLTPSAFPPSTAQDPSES
UniProt Q14566: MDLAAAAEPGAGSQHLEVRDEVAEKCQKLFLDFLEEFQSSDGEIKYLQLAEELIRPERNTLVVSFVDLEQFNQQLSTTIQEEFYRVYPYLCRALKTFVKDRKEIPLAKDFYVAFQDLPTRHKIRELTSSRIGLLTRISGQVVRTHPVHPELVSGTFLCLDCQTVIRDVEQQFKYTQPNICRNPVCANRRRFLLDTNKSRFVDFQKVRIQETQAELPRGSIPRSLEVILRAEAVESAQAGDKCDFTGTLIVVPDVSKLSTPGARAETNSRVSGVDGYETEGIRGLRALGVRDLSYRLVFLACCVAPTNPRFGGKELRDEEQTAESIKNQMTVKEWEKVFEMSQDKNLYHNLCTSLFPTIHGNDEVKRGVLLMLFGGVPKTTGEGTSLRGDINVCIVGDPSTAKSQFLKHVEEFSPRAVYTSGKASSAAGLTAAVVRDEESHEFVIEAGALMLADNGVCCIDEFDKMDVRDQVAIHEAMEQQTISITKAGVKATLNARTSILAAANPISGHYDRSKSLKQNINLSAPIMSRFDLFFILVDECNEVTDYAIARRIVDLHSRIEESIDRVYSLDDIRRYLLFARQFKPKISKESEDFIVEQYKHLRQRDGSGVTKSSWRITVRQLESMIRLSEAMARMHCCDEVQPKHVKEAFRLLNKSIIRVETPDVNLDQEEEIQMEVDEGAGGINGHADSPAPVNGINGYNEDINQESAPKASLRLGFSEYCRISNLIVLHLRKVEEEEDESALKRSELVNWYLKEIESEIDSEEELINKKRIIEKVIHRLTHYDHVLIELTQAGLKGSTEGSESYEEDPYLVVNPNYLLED
UniProt Q9GZU1, whole entry, looked up: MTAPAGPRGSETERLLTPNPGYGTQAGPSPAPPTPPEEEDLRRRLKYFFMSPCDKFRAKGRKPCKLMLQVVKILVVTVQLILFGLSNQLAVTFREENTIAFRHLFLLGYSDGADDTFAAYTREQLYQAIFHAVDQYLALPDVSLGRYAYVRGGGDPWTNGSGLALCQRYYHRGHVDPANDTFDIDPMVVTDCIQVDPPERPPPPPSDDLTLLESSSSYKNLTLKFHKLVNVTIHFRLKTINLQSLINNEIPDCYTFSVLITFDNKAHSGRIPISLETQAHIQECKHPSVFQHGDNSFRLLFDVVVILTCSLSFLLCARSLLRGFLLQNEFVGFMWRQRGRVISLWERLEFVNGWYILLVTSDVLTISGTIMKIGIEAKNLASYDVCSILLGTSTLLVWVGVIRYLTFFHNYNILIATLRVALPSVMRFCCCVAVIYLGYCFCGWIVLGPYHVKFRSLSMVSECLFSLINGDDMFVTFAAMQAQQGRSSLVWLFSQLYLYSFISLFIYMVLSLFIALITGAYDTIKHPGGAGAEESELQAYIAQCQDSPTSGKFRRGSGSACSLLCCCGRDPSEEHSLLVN
UniProt Q9BUT9: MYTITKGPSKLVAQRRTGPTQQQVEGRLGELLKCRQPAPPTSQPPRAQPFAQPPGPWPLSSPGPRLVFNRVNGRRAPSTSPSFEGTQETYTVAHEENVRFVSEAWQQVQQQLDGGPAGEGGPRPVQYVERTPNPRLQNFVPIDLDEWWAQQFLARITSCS
UniProt Q8IVS2: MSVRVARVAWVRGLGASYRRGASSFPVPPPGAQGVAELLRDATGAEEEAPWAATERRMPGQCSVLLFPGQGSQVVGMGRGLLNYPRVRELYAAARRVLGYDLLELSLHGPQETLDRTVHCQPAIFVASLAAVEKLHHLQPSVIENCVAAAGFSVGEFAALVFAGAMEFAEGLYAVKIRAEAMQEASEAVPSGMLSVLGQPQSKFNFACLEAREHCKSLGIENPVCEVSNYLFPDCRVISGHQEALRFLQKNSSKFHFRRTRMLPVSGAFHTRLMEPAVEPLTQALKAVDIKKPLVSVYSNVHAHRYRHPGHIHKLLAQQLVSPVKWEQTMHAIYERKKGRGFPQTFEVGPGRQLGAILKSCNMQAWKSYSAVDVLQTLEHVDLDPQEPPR
UniProt Q86W50: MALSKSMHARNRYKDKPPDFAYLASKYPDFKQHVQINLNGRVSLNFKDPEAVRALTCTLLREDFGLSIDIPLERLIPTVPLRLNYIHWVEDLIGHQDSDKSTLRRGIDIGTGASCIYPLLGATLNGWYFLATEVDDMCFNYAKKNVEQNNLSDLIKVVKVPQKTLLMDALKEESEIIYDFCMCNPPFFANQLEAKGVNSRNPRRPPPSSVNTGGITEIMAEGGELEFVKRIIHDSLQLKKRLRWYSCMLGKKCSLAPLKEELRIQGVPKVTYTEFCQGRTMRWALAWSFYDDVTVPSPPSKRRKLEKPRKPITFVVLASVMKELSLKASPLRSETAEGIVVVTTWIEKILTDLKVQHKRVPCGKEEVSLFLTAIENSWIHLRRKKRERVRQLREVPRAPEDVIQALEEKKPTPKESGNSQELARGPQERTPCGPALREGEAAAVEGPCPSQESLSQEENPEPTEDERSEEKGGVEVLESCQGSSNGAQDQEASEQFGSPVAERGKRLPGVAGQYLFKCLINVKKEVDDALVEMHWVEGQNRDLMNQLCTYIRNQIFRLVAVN
UniProt Q7L590: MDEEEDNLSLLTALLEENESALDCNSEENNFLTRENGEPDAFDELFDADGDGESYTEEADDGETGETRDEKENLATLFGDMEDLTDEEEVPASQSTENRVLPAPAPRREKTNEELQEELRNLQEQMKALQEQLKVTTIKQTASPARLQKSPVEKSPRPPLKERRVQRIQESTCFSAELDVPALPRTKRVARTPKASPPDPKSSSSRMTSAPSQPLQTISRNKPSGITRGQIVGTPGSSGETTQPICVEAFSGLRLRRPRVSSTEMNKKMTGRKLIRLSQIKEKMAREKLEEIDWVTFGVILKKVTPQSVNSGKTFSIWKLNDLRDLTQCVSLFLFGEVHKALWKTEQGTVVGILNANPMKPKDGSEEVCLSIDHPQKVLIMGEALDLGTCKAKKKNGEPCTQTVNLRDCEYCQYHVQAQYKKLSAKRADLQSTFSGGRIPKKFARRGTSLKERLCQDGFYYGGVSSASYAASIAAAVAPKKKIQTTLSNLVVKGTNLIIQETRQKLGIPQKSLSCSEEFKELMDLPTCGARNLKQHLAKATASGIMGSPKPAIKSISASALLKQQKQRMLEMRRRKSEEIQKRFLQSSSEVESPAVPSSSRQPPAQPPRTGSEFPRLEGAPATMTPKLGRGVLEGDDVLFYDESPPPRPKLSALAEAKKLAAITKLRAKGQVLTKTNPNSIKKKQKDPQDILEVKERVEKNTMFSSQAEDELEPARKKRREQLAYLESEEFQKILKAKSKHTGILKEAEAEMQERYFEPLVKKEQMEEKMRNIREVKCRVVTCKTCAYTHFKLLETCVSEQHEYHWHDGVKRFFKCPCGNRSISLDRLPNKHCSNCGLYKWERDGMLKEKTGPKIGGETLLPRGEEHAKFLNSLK
UniProt P61244, whole entry, looked up: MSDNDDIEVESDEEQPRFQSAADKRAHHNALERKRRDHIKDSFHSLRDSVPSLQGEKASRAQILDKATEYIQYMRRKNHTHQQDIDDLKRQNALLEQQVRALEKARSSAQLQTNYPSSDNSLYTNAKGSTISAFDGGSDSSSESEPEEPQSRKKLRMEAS
UniProt Q15528: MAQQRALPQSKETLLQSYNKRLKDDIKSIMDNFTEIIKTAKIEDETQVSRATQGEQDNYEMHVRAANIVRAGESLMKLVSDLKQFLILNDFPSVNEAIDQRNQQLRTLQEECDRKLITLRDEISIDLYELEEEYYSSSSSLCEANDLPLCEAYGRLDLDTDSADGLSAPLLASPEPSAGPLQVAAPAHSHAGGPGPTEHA
UniProt Q9ULK4: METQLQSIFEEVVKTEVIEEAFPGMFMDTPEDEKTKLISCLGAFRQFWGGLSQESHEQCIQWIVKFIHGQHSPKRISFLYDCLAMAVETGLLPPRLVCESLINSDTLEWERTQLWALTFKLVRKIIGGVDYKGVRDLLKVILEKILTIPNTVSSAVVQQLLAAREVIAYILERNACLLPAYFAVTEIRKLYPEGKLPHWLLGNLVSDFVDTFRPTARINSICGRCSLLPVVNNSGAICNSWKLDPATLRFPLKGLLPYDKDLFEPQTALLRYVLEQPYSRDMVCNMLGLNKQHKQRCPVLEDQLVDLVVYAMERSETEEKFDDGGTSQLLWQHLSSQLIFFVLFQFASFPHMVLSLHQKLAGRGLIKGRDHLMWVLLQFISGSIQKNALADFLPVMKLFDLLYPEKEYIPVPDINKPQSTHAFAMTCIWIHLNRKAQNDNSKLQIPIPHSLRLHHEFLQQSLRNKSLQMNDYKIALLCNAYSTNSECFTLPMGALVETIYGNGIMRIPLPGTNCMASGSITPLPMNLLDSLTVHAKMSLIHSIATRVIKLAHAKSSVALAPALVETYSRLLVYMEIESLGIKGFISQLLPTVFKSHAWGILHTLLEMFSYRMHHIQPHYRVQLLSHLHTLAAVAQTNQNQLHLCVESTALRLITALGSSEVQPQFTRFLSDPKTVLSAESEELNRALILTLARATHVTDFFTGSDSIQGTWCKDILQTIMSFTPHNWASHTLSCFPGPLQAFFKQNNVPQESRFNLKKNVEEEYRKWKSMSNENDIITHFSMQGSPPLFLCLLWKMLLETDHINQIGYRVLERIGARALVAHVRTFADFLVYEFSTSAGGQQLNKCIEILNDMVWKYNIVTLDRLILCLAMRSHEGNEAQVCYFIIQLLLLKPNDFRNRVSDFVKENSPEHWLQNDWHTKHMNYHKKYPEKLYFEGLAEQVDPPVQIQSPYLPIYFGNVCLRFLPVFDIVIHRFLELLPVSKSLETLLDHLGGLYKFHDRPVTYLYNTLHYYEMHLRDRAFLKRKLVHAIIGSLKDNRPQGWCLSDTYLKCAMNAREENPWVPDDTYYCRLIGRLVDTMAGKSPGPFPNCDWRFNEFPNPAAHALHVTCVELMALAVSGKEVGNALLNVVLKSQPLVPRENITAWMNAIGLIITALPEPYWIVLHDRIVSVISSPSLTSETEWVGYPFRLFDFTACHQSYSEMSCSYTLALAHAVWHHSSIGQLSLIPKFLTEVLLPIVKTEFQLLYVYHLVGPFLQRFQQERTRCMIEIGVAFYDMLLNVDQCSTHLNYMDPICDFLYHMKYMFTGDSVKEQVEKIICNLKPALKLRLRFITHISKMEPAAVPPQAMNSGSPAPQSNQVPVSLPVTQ
UniProt O95402: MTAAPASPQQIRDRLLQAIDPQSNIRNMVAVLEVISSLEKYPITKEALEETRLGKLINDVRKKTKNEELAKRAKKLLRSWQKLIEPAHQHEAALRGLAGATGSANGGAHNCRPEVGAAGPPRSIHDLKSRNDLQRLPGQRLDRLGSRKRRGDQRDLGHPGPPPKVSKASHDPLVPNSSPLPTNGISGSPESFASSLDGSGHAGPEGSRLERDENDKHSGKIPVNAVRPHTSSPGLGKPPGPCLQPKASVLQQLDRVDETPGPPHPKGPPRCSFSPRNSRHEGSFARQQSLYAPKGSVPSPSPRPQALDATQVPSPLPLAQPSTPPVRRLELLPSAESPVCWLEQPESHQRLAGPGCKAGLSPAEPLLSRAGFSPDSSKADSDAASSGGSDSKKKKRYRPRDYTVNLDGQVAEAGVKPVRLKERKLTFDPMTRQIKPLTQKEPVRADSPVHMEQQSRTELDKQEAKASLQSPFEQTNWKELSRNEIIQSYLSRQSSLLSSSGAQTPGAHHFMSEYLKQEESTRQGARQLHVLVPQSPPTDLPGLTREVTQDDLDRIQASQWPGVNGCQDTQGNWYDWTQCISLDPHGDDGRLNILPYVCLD

Assays:
Assay in all cases: log2 fold change, soluble protein after heating vs DMSO (PISA); higher = thermal stabilisation; K562 cells, 10 uM, 30 min; active = over 0.2 and 3.5 SD of the protein, either way, in both replicates (recomputed)
[1] = compound: CC1=C(C=C(C=C1)NC(=O)C2=CC(=CC=C2)C(C)(C)C#N)NC3=CC4=C(C=C3)N=CN(C4=O)C
Procedure, shortened: (§1)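 K562 cells at 2×10^6 cells/mL were treated with 10 μM compound for 30 min. Aliquots were heated for 3 min across 48°C-58°C, pooled, and extracted in PBS with 0.5% NP-40 at 4°C; soluble protein was the supernatant after 21,000xg for 90 min. Soluble protein was quantified by TMTpro 16plex LC-MS/MS with channel sums equalised, and reported as log2 fold change in thermal stability against DMSO controls, with values from duplicates.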

[2] = compound: CC1=C(C=C(C=C1)NC(=O)C2=CC(=CC=C2)N(C)C)NC(=O)C3=CC=C(C=C3)O
Procedure, shortened: as §1

[3] = compound: CC1=NC(=CC=C1)C2=C(N=C(N2)C(C)(C)C)C3=CC4=NC=CN=C4C=C3
Procedure, shortened: as §1

Nexturastat A = compound: CCCCN(Cc1ccc(C(=O)NO)cc1)C(=O)Nc1ccccc1 [Nexturastat A]
Procedure, shortened: as §1

vemurafenib = compound: CCCS(=O)(=O)Nc1ccc(F)c(C(=O)c2c[nH]c3ncc(-c4ccc(Cl)cc4)cc23)c1F [vemurafenib]
Procedure, shortened: as §1

[4] = compound: CCCc1cc(C)[nH]c(=O)c1CNC(=O)c1cc(-c2ccnc(N3CCN(C)CC3)c2)cc2c1cnn2C(C)C
Procedure, shortened: as §1

[5] = compound: CC1=CC=C(C=C1)SC2=C3C=C(SC3=CN=C2)C(=O)N
Procedure, shortened: as §1

[6] = compound: CCCS(=O)(=O)Nc1ccc(F)c(C(=O)c2c[nH]c3ncc(Cl)cc23)c1F
Procedure, shortened: as §1

givinostat = compound: CCN(CC)Cc1ccc2cc(COC(=O)Nc3ccc(C(=O)NO)cc3)ccc2c1 [givinostat]
Procedure, shortened: as §1

barasertib = compound: CCN(CCCOc1ccc2c(Nc3cc(CC(=O)Nc4cccc(F)c4)[nH]n3)ncnc2c1)CCOP(=O)(O)O [barasertib]
Procedure, shortened: as §1

Measured: log2 fold change

METTL2B (UniProt Q6P1Q9)
inactive: [1] -0.079 | [2] -0.033 | [3] 0.062 | Nexturastat A 0.112 | vemurafenib 0.031 | [4] 0.185

METTL17 isoform 3 (UniProt Q9H7H0)
inactive: [1] 0.344 | [2] -0.016 | [5] -0.135 | [6] -0.08 | [4] 0.105

METAP2 (UniProt P50579)
inactive: [1] -0.151 | [2] -0.022 | [5] 0.025 | [3] -0.043 | Nexturastat A 0.02 | vemurafenib -0.04 | [6] -0.063 | [4] 0.007 | givinostat -0.22 | barasertib -0.02

MCM6 (UniProt Q14566)
inactive: [1] -0.063 | [2] -0.004 | [5] -0.007 | [3] 0.018 | Nexturastat A -0.098 | vemurafenib 0.005 | [6] 0.044 | [4] -0.037 | givinostat -0.042 | barasertib 0.023

MBNL1 isoform 5 (UniProt Q9NR56)
inactive: [1] -0.111 | [2] 0.009 | [3] 0.158 | Nexturastat A 0.001 | [4] -0.079 | barasertib -0.088

MGST1 (UniProt P10620)
inactive: [1] 0.062 | [2] 0.044 | [5] -0.017 | [3] 0.017 | Nexturastat A -0.07 | vemurafenib 0.067 | [6] -0.007 | [4] -0.093 | givinostat -0.027 | barasertib -0.035

MCOLN1 (UniProt Q9GZU1)
inactive: [1] -0.1 | [2] 0.073 | [5] 0.258 | [3] -0.102 | Nexturastat A 0.205 | [6] -0.007 | [4] -0.141 | givinostat -0.033 | barasertib -0.058

MBD2 (UniProt Q9UBB5)
inactive: [1] 0.069 | [2] 0.053 | [5] -0.011 | Nexturastat A 0.163 | vemurafenib 0.033 | [6] 0.068 | [4] 0.198 | givinostat 0.2 | barasertib -0.042

MBOAT1 (UniProt Q6ZNC8)
inactive: [1] -0.016 | [2] -0.055 | [5] 0.213 | [3] 0.047 | Nexturastat A -0.007 | vemurafenib -0.185 | [6] 0.133 | givinostat -0.03 | barasertib 0.044

MCRIP2 (UniProt Q9BUT9)
inactive: [1] -0.102 | [2] 0.014 | [5] 0.079 | [3] -0.101 | Nexturastat A -0.026 | [6] 0.028 | givinostat -0.053 | barasertib -0.054

MCAT (UniProt Q8IVS2)
inactive: [1] -0.023 | [2] 0.006 | [5] -0.007 | [3] -0.115 | Nexturastat A 0.041 | vemurafenib -0.036 | [6] 0.01 | [4] 0.031 | givinostat 0.018 | barasertib -0.038

MED13 (UniProt Q9UHV7)
inactive: [1] 0.019 | [2] 0.06 | [5] -0.066 | [3] -0.11 | Nexturastat A 0.097 | vemurafenib -0.244 | [6] 0.065 | [4] -0.03 | barasertib 0.032

METTL21A (UniProt Q8WXB1)
inactive: [1] 0.067 | [2] 0.018 | [5] 0.054 | [3] -0.01 | Nexturastat A -0.07 | vemurafenib 0.052 | [6] 0.059 | [4] 0.024 | givinostat -0.075 | barasertib 0.026

MED19 (UniProt A0JLT2)
inactive: [1] -0.031 | [2] 0.068 | [3] -0.169 | Nexturastat A 0.217 | vemurafenib -0.044 | [4] 0.04 | barasertib 0.056

METTL16 (UniProt Q86W50)
inactive: [1] 0.028 | [2] -0.069 | [5] 0.003 | [3] -0.029 | Nexturastat A 0.031 | vemurafenib 0.006 | [6] 0.071 | [4] 0.013 | givinostat 0.005 | barasertib 0.029

MCM10 (UniProt Q7L590)
inactive: [1] 0.209 | [5] 0.166 | [3] 0.155 | Nexturastat A 0.028 | vemurafenib -0.016 | [6] 0.217 | [4] -0.037 | givinostat -0.065 | barasertib -0.012

MFSD14B (UniProt Q5SR56)
inactive: [1] -0.089 | [5] -0.03 | [3] -0.037 | Nexturastat A -0.069 | vemurafenib 0.069 | [6] -0.066 | [4] 0.028 | givinostat -0.025

MASTL (UniProt Q96GX5)
inactive: [1] 0.032 | [2] 0.187 | [3] -0.056 | Nexturastat A -0.149 | vemurafenib -0.028 | [4] -0.032 | givinostat -0.038 | barasertib -0.013

MED12 isoform 2 (UniProt Q93074)
inactive: [1] 0.034 | [2] -0.202 | [5] -0.015 | [3] -0.09 | Nexturastat A 0.012 | [6] 0.071 | [4] 0.023 | givinostat 0.106 | barasertib -0.135

MAX (UniProt P61244)
inactive: [1] -0.043 | [2] 0.012 | [5] -0.083 | [3] -0.011 | Nexturastat A -0.034 | vemurafenib 0.113 | [6] -0.064 | [4] -0.055 | givinostat -0.144 | barasertib -0.007

6 consecutive records out of the list so far:
MGST1 (UniProt P10620)
inactive: [1] 0.062 | [2] 0.044 | [5] -0.017 | [3] 0.017 | Nexturastat A -0.07 | vemurafenib 0.067 | [6] -0.007 | [4] -0.093 | givinostat -0.027 | barasertib -0.035

MCOLN1 (UniProt Q9GZU1)
inactive: [1] -0.1 | [2] 0.073 | [5] 0.258 | [3] -0.102 | Nexturastat A 0.205 | [6] -0.007 | [4] -0.141 | givinostat -0.033 | barasertib -0.058

MBD2 (UniProt Q9UBB5)
inactive: [1] 0.069 | [2] 0.053 | [5] -0.011 | Nexturastat A 0.163 | vemurafenib 0.033 | [6] 0.068 | [4] 0.198 | givinostat 0.2 | barasertib -0.042

MBOAT1 (UniProt Q6ZNC8)
inactive: [1] -0.016 | [2] -0.055 | [5] 0.213 | [3] 0.047 | Nexturastat A -0.007 | vemurafenib -0.185 | [6] 0.133 | givinostat -0.03 | barasertib 0.044

MCRIP2 (UniProt Q9BUT9)
inactive: [1] -0.102 | [2] 0.014 | [5] 0.079 | [3] -0.101 | Nexturastat A -0.026 | [6] 0.028 | givinostat -0.053 | barasertib -0.054

MCAT (UniProt Q8IVS2)
inactive: [1] -0.023 | [2] 0.006 | [5] -0.007 | [3] -0.115 | Nexturastat A 0.041 | vemurafenib -0.036 | [6] 0.01 | [4] 0.031 | givinostat 0.018 | barasertib -0.038

(cont.)

MED22 (UniProt Q15528)
inactive: [1] -0.023 | [2] 0.034 | [3] 0.015 | Nexturastat A -0.033 | vemurafenib 0.043 | [4] 0.014 | givinostat 0.117 | barasertib 0.028

MIB1 (UniProt Q86YT6)
inactive: [1] -0.125 | [2] -0.023 | [3] -0.178 | Nexturastat A 0.27 | vemurafenib 0.013 | [4] 0.339 | givinostat 0.198 | barasertib -0.022

MED23 (UniProt Q9ULK4)
inactive: [1] 0.021 | [2] -0.016 | [5] 0.022 | [3] 0.008 | Nexturastat A 0.019 | vemurafenib 0.027 | [6] 0.033 | [4] 0.06 | givinostat 0.049 | barasertib 0.097

MED26 (UniProt O95402)
inactive: [1] -0.024 | [2] 0.123 | [5] 0.051 | [3] -0.105 | vemurafenib -0.016 | [6] -0.11

METTL25 (UniProt Q8N6Q8)
inactive: [1] -0.162 | [5] -0.155 | [3] -0.204 | Nexturastat A 0.086 | vemurafenib 0.022 | [6] -0.248 | [4] -0.089 | givinostat 0.034 | barasertib 0.078

MED25 isoform 3 (UniProt Q71SY5)
inactive: [1] -0.033 | [2] 0.022 | [5] -0.012 | [3] -0.014 | vemurafenib 0.141 | [6] 0.05 | [4] -0.083 | givinostat 0.105 | barasertib 0.019

MAT1A (UniProt Q00266)
inactive: [1] -0.081 | [2] 0.043 | [5] -0.012 | [3] 0.005 | Nexturastat A 0.001 | vemurafenib -0.028 | [6] -0.006 | [4] 0.015 | givinostat -0.064 | barasertib -0.003

MED28 (UniProt Q9H204)
inactive: [1] 0.004 | [2] -0.071 | [5] -0.087 | [6] 0.099 | [4] -0.009 | givinostat -0.144 | barasertib -0.006

MERTK (UniProt Q12866)
inactive: [1] 0 | [5] 0.039 | [3] 0.103 | Nexturastat A -0.092 | vemurafenib -0.002 | [6] 0.085 | [4] -0.035 | givinostat 0.003 | barasertib 0.133

MCM3 isoform 2 (UniProt P25205)
inactive: [1] 0 | [2] -0.003 | [5] -0.003 | [3] 0.023 | Nexturastat A -0.012 | vemurafenib 0.005 | [6] 0.023 | [4] -0.015 | givinostat -0.002 | barasertib 0.009
